Measurements reported in US20180320217A1, “METHODS FOR SAMPLING AND MEASURING ORAL LAVAGE PROTEINS” (The Procter & Gamble Company, priority 2017, published 2018).

Tested on: proteins in oral lavage
Experiment: Abundance of proteins in human oral lavage (SomaLogic), TABLE 1
Assay type: in vivo
Settings: for Means (Original Scale) High bleeder BL / Means (Original Scale) High bleeder W4 / Means (Original Scale) Low bleeder BL: abundance in oral lavage; for Means (Original Scale) High bleeder BL: high bleeders (gingivitis); for Means (Original Scale) High bleeder BL / Means (Original Scale) Low bleeder BL: baseline; for Means (Original Scale) High bleeder W4 / Fold Change High bleeder W4 vs High bleeder BL: high bleeders; for Means (Original Scale) High bleeder W4: week 4 of investigative products; for Means (Original Scale) Low bleeder BL: low bleeders (healthy); for Fold Change High bleeder BL vs Low bleeder BL / Fold Change High bleeder W4 vs High bleeder BL: oral lavage; for Fold Change High bleeder BL vs Low bleeder BL: high bleeders vs low bleeders at baseline; for Fold Change High bleeder W4 vs High bleeder BL: week 4 of investigative products vs baseline

B1: Ephrin-B1 (protein, UniProt P98172 28-346, looked up)
Ephrin-B1: LAKNLEPVSWSSLNPKFLSGKGLVIYPKIGDKLDIICPRAEAGRPYEYYKLYLVRPEQAAACSTVLDPNVLVTCNRPEQEIRFTIKFQEFSPNYMGLEFKKHHDYYITSTSNGSLEGLENREGGVCRTRTMKIIMKVGQDPNAVTPEQLTTSRPSKEADNTVKMATQAPGSRGSLGDSDGKHETVNQEEKSGPGASGGSSGDPDGFFNSKVALFAAVGAGCVIFLLIIIFLTVLLLKLRKRHRKHTQQRAAALSLSTLASPKGGSGTAGTEPSDIIIPLRTTENNYCPHYEKVSGDYGHPVYIVQEMPPQSPANIYYKV
  Means (Original Scale) High bleeder BL: 5419
  Means (Original Scale) High bleeder W4: 3253
  Means (Original Scale) Low bleeder BL: 1760
  Fold Change High bleeder BL vs Low bleeder BL: 2.92
  Fold Change High bleeder W4 vs High bleeder BL: 0.64

B2: Ephrin-A4 (protein, UniProt P52798 26-170, looked up)
Ephrin-A4: LRHVVYWNSSNPRLLRGDAVVELGLNDYLDIVCPHYEGPGPPEGPETFALYMVDWPGYESCQAEGPRAYKRWVCSLPFGHVQFSEKIQRFTPFSLGFEFLPGETYYYISVPTPESSGQCLRLQVSVCCKERKSESAHPVGSPGES
  Means (Original Scale) High bleeder BL: 1384
  Means (Original Scale) High bleeder W4: 729
  Means (Original Scale) Low bleeder BL: 350
  Fold Change High bleeder BL vs Low bleeder BL: 3.60
  Fold Change High bleeder W4 vs High bleeder BL: 0.55

B3: EGF-containing fibulin-like extracellular matrix protein 1 (protein, UniProt Q12805 18-493, looked up)
EGF-containing fibulin-like …: QDTEETITYTQCTDGYEWDPVRQQCKDIDECDIVPDACKGGMKCVNHYGGYLCLPKTAQIIVNNEQPQQETQPAEGTSGATTGVVAASSMATSGVLPGGGFVASAAAVAGPEMQTGRNNFVIRRNPADPQRIPSNPSHRIQCAAGYEQSEHNVCQDIDECTAGTHNCRADQVCINLRGSFACQCPPGYQKRGEQCVDIDECTIPPYCHQRCVNTPGSFYCQCSPGFQLAANNYTCVDINECDASNQCAQQCYNILGSFICQCNQGYELSSDRLNCEDIDECRTSSYLCQYQCVNEPGKFSCMCPQGYQVVRSRTCQDINECETTNECREDEMCWNYHGGFRCYPRNPCQDPYILTPENRCVCPVSNAMCRELPQSIVYKYMSIRSDRSVPSDIFQIQATTIYANTINTFRIKSGNENGEFYLRQTSPVSAMLVLVKSLSGPREHIVDLEMLTVSSIGTFRTSSVLRLTIIVGPFSF
  Means (Original Scale) High bleeder BL: 29110
  Means (Original Scale) High bleeder W4: 11693
  Means (Original Scale) Low bleeder BL: 3473
  Fold Change High bleeder BL vs Low bleeder BL: 6.80
  Fold Change High bleeder W4 vs High bleeder BL: 0.50

B4: Ephrin type-B receptor 2 (protein, UniProt P29323 19-1055, looked up)
Ephrin type-B receptor 2: VEETLMDSTTATAELGWMVHPPSGWEEVSGYDENMNTIRTYQVCNVFESSQNNWLRTKFIRRRGAHRIHVEMKFSVRDCSSIPSVPGSCKETFNLYYYEADFDSATKTFPNWMENPWVKVDTIAADESFSQVDLGGRVMKINTEVRSFGPVSRSGFYLAFQDYGGCMSLIAVRVFYRKCPRIIQNGAIFQETLSGAESTSLVAARGSCIANAEEVDVPIKLYCNGDGEWLVPIGRCMCKAGFEAVENGTVCRGCPSGTFKANQGDEACTHCPINSRTTSEGATNCVCRNGYYRADLDPLDMPCTTIPSAPQAVISSVNETSLMLEWTPPRDSGGREDLVYNIICKSCGSGRGACTRCGDNVQYAPRQLGLTEPRIYISDLLAHTQYTFEIQAVNGVTDQSPFSPQFASVNITTNQAAPSAVSIMHQVSRTVDSITLSWSQPDQPNGVILDYELQYYEKELSEYNATAIKSPTNTVTVQGLKAGAIYVFQVRARTVAGYGRYSGKMYFQTMTEAEYQTSIQEKLPLIIGSSAAGLVFLIAVVVIAIVCNRRGFERADSEYTDKLQHYTSGHMTPGMKIYIDPFTYEDPNEAVREFAKEIDISCVKIEQVIGAGEFGEVCSGHLKLPGKREIFVAIKTLKSGYTEKQRRDFLSEASIMGQFDHPNVIHLEGVVTKSTPVMIITEFMENGSLDSFLRQNDGQFTVIQLVGMLRGIAAGMKYLADMNYVHRDLAARNILVNSNLVCKVSDFGLSRFLEDDTSDPTYTSALGGKIPIRWTAPEAIQYRKFTSASDVWSYGIVMWEVMSYGERPYWDMTNQDVINAIEQDYRLPPPMDCPSALHQLMLDCWQKDRNHRPKFGQIVNTLDKMIRNPNSLKAMAPLSSGINLPLLDRTIPDYTSFNTVDEWLEAIKMGQYKESFANAGFTSFDVVSQMMMEDILRVGVTLAGHQKKILNSIQVMRAQMNQIQSVEGQPLARRPRATGRTKRCQPRDVTKKTCNSNDGKKKGMGKKKTDPGRGREIQGIFFKEDSHKESNDCSCGG
  Means (Original Scale) High bleeder BL: 3011
  Means (Original Scale) High bleeder W4: 1883
  Means (Original Scale) Low bleeder BL: 986
  Fold Change High bleeder BL vs Low bleeder BL: 2.36
  Fold Change High bleeder W4 vs High bleeder BL: 0.52

B5: Endothelial monocyte-activating polypeptide 2 (protein, UniProt Q12904 147-312, looked up)
Endothelial …: SKPIDVSRLDLRIGCIITARKHPDADSLYVEEVDVGEIAPRTVVSGLVNHVPLEQMQNRMVILLCNLKPAKMRGVLSQAMVMCASSPEKIEILAPPNGSVPGDRITFDAFPGEPDKELNPKKKIWEQIQPDLHTNDECVATYKGVPFEVKGKGVCRAQTMSNSGIK
modifications: Endothelial monocyte-activating polypeptide 2
  Means (Original Scale) High bleeder BL: 2955
  Means (Original Scale) High bleeder W4: 1541
  Means (Original Scale) Low bleeder BL: 468
  Fold Change High bleeder BL vs Low bleeder BL: 4.67
  Fold Change High bleeder W4 vs High bleeder BL: 0.60

B6: Endoglin (protein, UniProt P17813 26-658, looked up)
Endoglin: ETVHCDLQPVGPERGEVTYTTSQVSKGCVAQAPNAILEVHVLFLEFPTGPSQLELTLQASKQNGTWPREVLLVLSVNSSVFLHLQALGIPLHLAYNSSLVTFQEPPGVNTTELPSFPKTQILEWAAERGPITSAAELNDPQSILLRLGQAQGSLSFCMLEASQDMGRTLEWRPRTPALVRGCHLEGVAGHKEAHILRVLPGHSAGPRTVTVKVELSCAPGDLDAVLILQGPPYVSWLIDANHNMQIWTTGEYSFKIFPEKNIRGFKLPDTPQGLLGEARMLNASIVASFVELPLASIVSLHASSCGGRLQTSPAPIQTTPPKDTCSPELLMSLIQTKCADDAMTLVLKKELVAHLKCTITGLTFWDPSCEAEDRGDKFVLRSAYSSCGMQVSASMISNEAVVNILSSSSPQRKKVHCLNMDSLSFQLGLYLSPHFLQASNTIEPGQQSFVQVRVSPSVSEFLLQLDSCHLDLGPEGGTVELIQGRAAKGNCVSLLSPSPEGDPRFSFLLHFYTVPIPKTGTLSCTVALRPKTGSQDQEVHRTVFMRLNIISPDLSGCTSKGLVLPAVLGITFGAFLIGALLTAALWYIYSHTRSPSKREPVVAVAAPASSESSSTNHSIGSTQSTPCSTSSMA
  Means (Original Scale) High bleeder BL: 55
  Means (Original Scale) High bleeder W4: 38
  Means (Original Scale) Low bleeder BL: 31
  Fold Change High bleeder BL vs Low bleeder BL: 1.65
  Fold Change High bleeder W4 vs High bleeder BL: 0.72

B7: Ephrin type-A receptor 1 (protein, UniProt P21709 26-976, looked up)
Ephrin type-A receptor 1: KEVTLMDTSKAQGELGWLLDPPKDGWSEQQQILNGTPLYMYQDCPMQGRRDTDHWLRSNWIYRGEEASRVHVELQFTVRDCKSFPGGAGPLGCKETFNLLYMESDQDVGIQLRRPLFQKVTTVAADQSFTIRDLVSGSVKLNVERCSLGRLTRRGLYLAFHNPGACVALVSVRVFYQRCPETLNGLAQFPDTLPGPAGLVEVAGTCLPHARASPRPSGAPRMHCSPDGEWLVPVGRCHCEPGYEEGGSGEACVACPSGSYRMDMDTPHCLTCPQQSTAESEGATICTCESGHYRAPGEGPQVACTGPPSAPRNLSFSASGTQLSLRWEPPADTGGRQDVRYSVRCSQCQGTAQDGGPCQPCGVGVHFSPGARGLTTPAVHVNGLEPYANYTFNVEAQNGVSGLGSSGHASTSVSISMGHAESLSGLSLRLVKKEPRQLELTWAGSRPRSPGANLTYELHVLNQDEERYQMVLEPRVLLTELQPDTTYIVRVRMLTPLGPGPFSPDHEFRTSPPVSRGLTGGEIVAVIFGLLLGAALLLGILVFRSRRAQRQRQQRQRDRATDVDREDKLWLKPYVDLQAYEDPAQGALDFTRELDPAWLMVDTVIGEGEFGEVYRGTLRLPSQDCKTVAIKTLKDTSPGGQWWNFLREATIMGQFSHPHILHLEGVVTKRKPIMIITEFMENGALDAFLREREDQLVPGQLVAMLQGIASGMNYLSNHNYVHRDLAARNILVNQNLCCKVSDFGLTRLLDDFDGTYETQGGKIPIRWTAPEAIAHRIFTTASDVWSFGIVMWEVLSFGDKPYGEMSNQEVMKSIEDGYRLPPPVDCPAPLYELMKNCWAYDRARRPHFQKLQAHLEQLLANPHSLRTIANFDPRMTLRLPSLSGSDGIPYRTVSEWLESIRMKRYILHFHSAGLDTMECVLELTAEDLTQMGITLPGHQKRILCSIQGFKD
  Means (Original Scale) High bleeder BL: 605
  Means (Original Scale) High bleeder W4: 371
  Means (Original Scale) Low bleeder BL: 375
  Fold Change High bleeder BL vs Low bleeder BL: 2.13
  Fold Change High bleeder W4 vs High bleeder BL: 0.59

B8: Ephrin type-B receptor 6 (protein, UniProt O15197 32-1021, looked up)
Ephrin type-B receptor 6: LEEVLLDTTGETSEIGWLTYPPGGWDEVSVLDDQRRLTRTFEACHVAGAPPGTGQDNWLQTHFVERRGAQRAHIRLHFSVRACSSLGVSGGTCRETFTLYYRQAEEPDSPDSVSSWHLKRWTKVDTIAADESFPSSSSSSSSSSSAAWAVGPHGAGQRAGLQLNVKERSFGPLTQRGFYVAFQDTGACLALVAVRLFSYTCPAVLRSFASFPETQASGAGGASLVAAVGTCVAHAEPEEDGVGGQAGGSPPRLHCNGEGKWMVAVGGCRCQPGYQPARGDKACQACPRGLYKSSAGNAPCSPCPARSHAPNPAAPVCPCLEGFYRASSDPPEAPCTGPPSAPQELWFEVQGSALMLHWRLPRELGGRGDLLFNVVCKECEGRQEPASGGGGTCHRCRDEVHFDPRQRGLTESRVLVGGLRAHVPYILEVQAVNGVSELSPDPPQAAAINVSTSHEVPSAVPVVHQVSRASNSITVSWPQPDQTNGNILDYQLRYYDQAEDESHSFTLTSETNTATVTQLSPGHIYGFQVRARTAAGHGPYGGKVYFQTLPQGELSSQLPERLSLVIGSILGALAFLLLAAITVLAVVFQRKRRGTGYTEQLQQYSSPGLGVKYYIDPSTYEDPCQAIRELAREVDPAYIKIEEVIGTGSFGEVRQGRLQPRGRREQTVAIQALWAGGAESLQMTFLGRAAVLGQFQHPNILRLEGVVTKSRPLMVLTEFMELGPLDSFLRQREGQFSSLQLVAMQRGVAAAMQYLSSFAFVHRSLSAHSVLVNSHLVCKVARLGHSPQGPSCLLRWAAPEVIAHGKHTTSSDVWSFGILMWEVMSYGERPYWDMSEQEVLNAIEQEFRLPPPPGCPPGLHLLMLDTWQKDRARRPHFDQLVAAFDKMIRKPDTLQAGGDPGERPSQALLTPVALDFPCLDSPQAWLSAIGLECYQDNFSKFGLCTFSDVAQLSLEDLPALGITLAGHQKKLLHHIQLLQQHLRQQGSVEV
  Means (Original Scale) High bleeder BL: 1464
  Means (Original Scale) High bleeder W4: 755
  Means (Original Scale) Low bleeder BL: 392
  Fold Change High bleeder BL vs Low bleeder BL: 3.50
  Fold Change High bleeder W4 vs High bleeder BL: 0.54
